# Reference: article PMC6471077
# The chains behind the UniProt entries cited, without tags or fusion partners. Where a name states a change or a piece, a line headed by the entry shows the natural chain unless it says otherwise.
# UniProt Q2QXL0: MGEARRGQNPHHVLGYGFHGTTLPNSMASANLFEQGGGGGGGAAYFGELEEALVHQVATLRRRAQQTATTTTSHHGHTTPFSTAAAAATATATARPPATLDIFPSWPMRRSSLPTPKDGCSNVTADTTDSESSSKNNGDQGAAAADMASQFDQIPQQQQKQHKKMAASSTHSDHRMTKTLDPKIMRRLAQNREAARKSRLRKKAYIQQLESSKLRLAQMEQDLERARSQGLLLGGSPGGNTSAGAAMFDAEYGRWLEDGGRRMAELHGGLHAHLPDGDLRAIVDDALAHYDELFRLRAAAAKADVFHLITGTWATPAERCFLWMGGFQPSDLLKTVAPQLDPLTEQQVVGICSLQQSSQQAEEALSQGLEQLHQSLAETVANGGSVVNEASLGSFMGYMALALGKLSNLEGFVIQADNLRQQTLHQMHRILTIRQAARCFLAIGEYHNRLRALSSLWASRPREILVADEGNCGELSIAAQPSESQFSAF
# These are yes or no findings as the source states them, for the method shown. Binding calls can cover weak binding; strength is not graded here. For some assays here: Sequences can lack the tags named with a protein.
# B1: SAPK10 (enzyme, UniProt Q75H77 1-362)
# chain: MDRAALTVGPGMDMPIMHDGDRYELVRDIGSGNFGVARLMRSRADGQLVAVKYIERGDKIDENVQREIINHRSLRHPNIIRFKEVILTPTHLAIVMEYASGGELFERICNAGRFSEDEARFFFQQLISGVSYCHSMQVCHRDLKLENTLLDGSTAPRLKICDFGYSKSSVLHSQPKSTVGTPAYIAPEVLLKKEYDGKIADVWSCGVTLYVMLVGAYPFEDPDEPKNFRKTIQRILGVQYSIPDYVHISPECRDLIARIFVANPATRISIPEIRNHPWFLKNLPADLMDDSKMSSQYEEPEQPMQSMDEIMQILAEATIPAAGSGGINQFLNDGLDLDDDMEDLDSDPDLDVESSGEIVYAM
# B2: SAPK8 (enzyme, UniProt Q7Y0B9 1-371)
# chain: MAAAGAGAGAPDRAALTVGPGMDMPIMHDSDRYELVRDIGSGNFGVARLMRDRRTMELVAVKYIERGEKIDDNVQREIINHRSLKHPNIIRFKEVILTPTHLAIVMEYASGGELFERICKNVRFSEDEARYFFQQLISGVSYCHSMQVCHRDLKLENTLLDGSPAPRLKICDFGYSKSSVLHSQPKSTVGTPAYIAPEVLLKKEYDGKTADVWSCGVTLYVMVVGAYPFEDPEEPKNFRKTIQRILNVQYSIPENVDISPECRHLISRIFVGDPSLRITIPEIRSHGWFLKNLPADLMDDDSMSSQYEEPDQPMQTMDQIMQILTEATIPPACSRINHILTDGLDLDDDMDDLDSDSDIDVDSSGEIVYAM
# B3: SAPK7 (enzyme, UniProt Q7XQP4 1-359)
# chain: MERYELLKDIGAGNFGVARLMRNKETKELVAMKYIPRGLKIDENVAREIINHRSLRHPNIIRFKEVVVTPTHLAIVMEYAAGGELFDRICNAGRFSEDEARYFFQQLICGVSYCHFMQICHRDLKLENTLLDGSPAPRLKICDFGYSKSSLLHSKPKSTVGTPAYIAPEVLSRREYDGKTADVWSCGVTLYVMLVGAYPFEDPDDPKNFRKTIGRIMSIQYKIPEYVHVSQDCRQLLSRIFVANPAKRITIREIRNHPWFLKNLPRELTEAAQAMYYKKDNSAPTYSVQSVEEIMKIVEEARTPPRSSTPVAGFGWQEEDEQEDNSKKPEEEQEEEEDAEDEYDKQVKQVHASGEFQLS
# Assays:
# [1] = target: T1, GST-SAPK9 (rice (Oryza sativa L.)) (UniProt Q75V57); assay: pull-down; GST fusion held on Glutathione High Capacity magnetic Agarose Beads; 500 ug of each recombinant protein in 600 uL buffer (50 mM Tris-HCl pH 7.5, 5% glycerol, 1 mM EDTA, 1 mM DTT, 1 mM PMSF, 0.01% Nonidet P-40, 150 mM KCl), 2 h at 4 C; western blot with anti-HIS and anti-GST; both …
# T1 sequence: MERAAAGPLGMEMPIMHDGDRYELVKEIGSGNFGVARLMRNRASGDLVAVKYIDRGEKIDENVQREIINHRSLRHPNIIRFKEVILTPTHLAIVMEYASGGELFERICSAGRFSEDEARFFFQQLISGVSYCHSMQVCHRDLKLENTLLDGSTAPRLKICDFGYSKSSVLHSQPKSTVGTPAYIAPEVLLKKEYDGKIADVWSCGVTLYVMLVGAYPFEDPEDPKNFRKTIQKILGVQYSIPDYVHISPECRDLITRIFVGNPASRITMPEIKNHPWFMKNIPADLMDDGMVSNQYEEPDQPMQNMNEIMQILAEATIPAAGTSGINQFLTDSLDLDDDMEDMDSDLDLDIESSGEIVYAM
# [2] = target: T2, GST-SAPK10 (rice (Oryza sativa L.)) (UniProt Q75H77); assay: as above
# T2 sequence: B1 chain
# [3] = target: bZIP77 (rice (Oryza sativa L.)); assay: two-hybrid; bZIPs as baits in pDEST32, SAPKs as preys in pDEST22 (ProQuest system), co-transformed into yeast Y2HGold; growth on SD/-Trp-Leu-Ade-His with X-alpha-Gal; three repeats, positive only if positive in all three
# [4] = target: bZIP55 (rice (Oryza sativa L.)); assay: as above
# [5] = target: bZIP35 (rice (Oryza sativa L.)); assay: as above
# [6] = target: bZIP83 (rice (Oryza sativa L.)) (UniProt Q2QXL0); assay: as above
molecule,measurement,setting,value
HIS-bZIP77 (rice (Oryza sativa L.)),binding,[1],binds
same,binding,[2],binds
B1,binding,[3],binds
same,binding,[4],binds
same,binding,[5],binds
B2,binding,[6],binds
same,binding,[5],binds
B3,binding,[5],binds
